Taken from: PubChem BioAssay AID1259308 (NCATS, 2017)

Test: 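Candidate targets for better recombinant protein yield in mammalian cells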 (primary screen)
Cells: human HEK293 embryonic kidney cells stably expressing firefly luciferase (HEK-CMV-Luc2-Hygro)
Reagents: single siRNA against human genes, 0.8 pmol siRNA per well
Time to read-out: 72 h
Measured: 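Reporter luminescence and viable-cell signal on separate replicate plates, given as percent of non-targeting control and median/MAD z-scores, plus per-cell luciferase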
Reading the numbers: total luciferase, z-score: higher = more reporter protein produced
Call rule: 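Active when the median/MAD z-score for overall luciferase is greater than 3; a gene was taken forward for validation with new siRNAs if at least two of its three siRNAs passed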
Calls: active = raised luciferase; inactive = no rise
Here is a random part of about 59,000 reagents tested. About 1,510 of them (2.6%) were called active. 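Calls use total luciferase alone and ignore viability, so some active siRNAs may act by altering cell number.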 Further read-outs or replicates are left out here.

TUBA8 (GeneID 51807) [SID160741363] | total luciferase, z-score: 0.0756; Outcome: inactive
TUBA8 (GeneID 51807) [SID160741364] | total luciferase, z-score: -0.486; Outcome: inactive
TUBA8 (GeneID 51807) [SID160741365] | total luciferase, z-score: -0.791; Outcome: inactive
MAMLD1 (GeneID 10046) [SID160724425] | total luciferase, z-score: 1.38; Outcome: inactive
MAMLD1 (GeneID 10046) [SID160724432] | total luciferase, z-score: 1.41; Outcome: inactive
MAMLD1 (GeneID 10046) [SID160724440] | total luciferase, z-score: -1.18; Outcome: inactive
FKBP14 (GeneID 55033) [SID160775905] | total luciferase, z-score: 0.1; Outcome: inactive
FKBP14 (GeneID 55033) [SID160775916] | total luciferase, z-score: 3.85; Outcome: active
FKBP14 (GeneID 55033) [SID160775927] | total luciferase, z-score: -1.16; Outcome: inactive
TNFSF14 (GeneID 8740) [SID160720715] | total luciferase, z-score: 0.419; Outcome: inactive
TNFSF14 (GeneID 8740) [SID160720716] | total luciferase, z-score: -0.129; Outcome: inactive
TNFSF14 (GeneID 8740) [SID160720717] | total luciferase, z-score: 1.67; Outcome: inactive
IZUMO1 (GeneID 284359) [SID160732971] | total luciferase, z-score: -0.365; Outcome: inactive
IZUMO1 (GeneID 284359) [SID160732972] | total luciferase, z-score: -0.349; Outcome: inactive
IZUMO1 (GeneID 284359) [SID160763284] | total luciferase, z-score: 0.555; Outcome: inactive
SIK2 (GeneID 23235) [SID160735792] | total luciferase, z-score: 2.09; Outcome: inactive
SIK2 (GeneID 23235) [SID160735793] | total luciferase, z-score: 3.12; Outcome: active
SIK2 (GeneID 23235) [SID160735794] | total luciferase, z-score: 0.757; Outcome: inactive
VENTX (GeneID 27287) [SID160738647] | total luciferase, z-score: 0.402; Outcome: inactive
VENTX (GeneID 27287) [SID160738648] | total luciferase, z-score: -0.559; Outcome: inactive
VENTX (GeneID 27287) [SID160738649] | total luciferase, z-score: 0.462; Outcome: inactive
NOTCH4 (GeneID 4855) [SID160731299] | total luciferase, z-score: -0.111; Outcome: inactive
NOTCH4 (GeneID 4855) [SID160778161] | total luciferase, z-score: 0.238; Outcome: inactive
NOTCH4 (GeneID 4855) [SID160778162] | total luciferase, z-score: -1.76; Outcome: inactive
CNN3 (GeneID 1266) [SID160745453] | total luciferase, z-score: 0.382; Outcome: inactive
CNN3 (GeneID 1266) [SID160745464] | total luciferase, z-score: -0.0105; Outcome: inactive
CNN3 (GeneID 1266) [SID160745473] | total luciferase, z-score: 0.762; Outcome: inactive
WNT11 (GeneID 7481) [SID160718859] | total luciferase, z-score: -0.152; Outcome: inactive
WNT11 (GeneID 7481) [SID160718860] | total luciferase, z-score: 0.805; Outcome: inactive
WNT11 (GeneID 7481) [SID160718861] | total luciferase, z-score: -0.348; Outcome: inactive
FAM171A2 (GeneID 284069) [SID160763141] | total luciferase, z-score: -0.446; Outcome: inactive
FAM171A2 (GeneID 284069) [SID160763142] | total luciferase, z-score: 0.447; Outcome: inactive
FAM171A2 (GeneID 284069) [SID160763143] | total luciferase, z-score: -2.02; Outcome: inactive
